Assay results taken from US7687067B2, “2-pyridinylcycloalkylcarboxamide derivatives useful as fungicides” (Bayer Cropscience S.A., priority 2004, dated 2010).
Some results were stated once for a whole list of compounds, not compound by compound.

How the values were obtained:
Pyrenophora teres = experiment: In vivo test on Pyrenophora teres (barley net blotch); conditions: 330 ppm; barley plants (Express variety) sprayed preventively 24 h before contamination; grading 12 days after contamination vs control plants
Alternaria brassicae = experiment: In vivo test on Alternaria brassicae (leaf spot of crucifers); conditions: 330 ppm; radish plants (Pernot variety) sprayed preventively 24 h before contamination; grading 6 to 7 days after contamination vs control plants

Row | Structure (SMILES) | protection (good (at least 50%) or total) (Pyrenophora teres) | protection (good (at least 50%) or total) (Alternaria brassicae)
1 | O=C(N[C@@H]1CCCC[C@@H]1c1ncc(C(F)(F)F)cc1Cl)c1cccnc1Cl (relative stereo) [Compound A-2, 2-chloro-N-{2-[3-chloro-5-(trifluoromethyl)-2-pyridinyl]cis-cyclohexyl}nicotinamide] | at least 50% | at least 50%
2 | O=C(N[C@@H]1CCCC[C@H]1c1ncc(C(F)(F)F)cc1Cl)c1cccnc1Cl (relative stereo) [Compound A-1, 2-chloro-N-{2-[3-chloro-5-(trifluoromethyl)-2-pyridinyl]trans-cyclohexyl}nicotinamide] | at least 50% | at least 50%
